The values below come from patent publication US10143727B2, “Method using an Y1 receptor activator for treating an anticancer agent-induced nephrotoxic injury” (KYUNGPOOK NATIONAL UNIVERSITY INDUSTRY-ACADEMIC COOPERATION …, priority 2016, dated 2018).

This data set concerns Neuropeptide Y (NPY) and Y receptors in the kidney. Kind of data set: Quantitative real-time PCR of NPY and Y receptors in the kidney. The format is in vivo, C57BL/6 mice. (Quantitative PCR measures a nucleic acid by following its amplification.)

On to `N.N.[Cl][Pt][Cl]` [cisplatin, Cisplatin], for which the “Expression level of Y1 receptor in the kidney” value (after cisplatin 15 mg per kg treatment) is on record as “significantly decreased”. Further, where the note is “cisplatin 15 mg per kg vs PBS-treated controls”, the “mRNA levels of Neuropeptide Y (NPY) in renal cells” value is “significantly decreased”.
